Experimental data: US10253255B2, “Phosphorescent nanoparticles and their uses in biosensing and bioimaging” (University of North Texas, priority 2015, dated 2019)

Test: Photoluminescence quantum yield
Format: physicochemical

Substance	relative photoluminescence quantum yield (RQY) (aqueous, vs. quinine sulfate) [%]	phosphorescence quantum yield (deaerated (oxygen-free) aqueous solutions) [%]
Na8[Au(TPPTS)3] [AuP]	4	
M4[Pt2(P2O5H2)4].2H2O [Pt—POP]		> 70
